Consider one compound from paper PMC6981868, “Repurposing Potential of Riluzole as an ITAF Inhibitor in mTOR Therapy Resistant Glioblastoma” (International Journal of Molecular Sciences, 2020).

Protein sequences, listed by entry. Tags and fused reporters are not part of them. Lines headed by an entry give the natural chain unless they say otherwise; changes in a name come on top.
UniProt P09651: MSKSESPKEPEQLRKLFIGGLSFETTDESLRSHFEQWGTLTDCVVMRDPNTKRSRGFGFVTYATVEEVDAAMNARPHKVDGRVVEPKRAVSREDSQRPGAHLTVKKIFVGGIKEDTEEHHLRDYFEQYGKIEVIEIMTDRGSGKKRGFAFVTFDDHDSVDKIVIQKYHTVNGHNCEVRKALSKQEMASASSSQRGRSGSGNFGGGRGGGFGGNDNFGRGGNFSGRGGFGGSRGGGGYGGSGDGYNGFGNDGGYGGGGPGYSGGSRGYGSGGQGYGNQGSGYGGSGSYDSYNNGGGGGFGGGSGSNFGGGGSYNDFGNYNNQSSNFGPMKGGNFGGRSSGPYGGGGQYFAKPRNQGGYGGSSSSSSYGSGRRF

This test deals with T1, hnRNP A1 (Homo sapiens, UniProt P09651).
T1 construct: gene HNRNPA1
In words: biochemical.

Each structure is given as a SMILES string. pKd: −log10 of the molar value.

Regarding `Nc1nc2ccc(OC(F)(F)F)cc2s1` [riluzole], the pKd (usually the Kd on a negative log10 scale, so that one unit is a factor of ten) is 6.18.
